Experimental data reported in publication PMC6649750.

Target: T1, Bst DNA polymerase I large fragment (Geobacillus stearothermophilus) (UniProt E1C9K5)
T1 sequence (looked up): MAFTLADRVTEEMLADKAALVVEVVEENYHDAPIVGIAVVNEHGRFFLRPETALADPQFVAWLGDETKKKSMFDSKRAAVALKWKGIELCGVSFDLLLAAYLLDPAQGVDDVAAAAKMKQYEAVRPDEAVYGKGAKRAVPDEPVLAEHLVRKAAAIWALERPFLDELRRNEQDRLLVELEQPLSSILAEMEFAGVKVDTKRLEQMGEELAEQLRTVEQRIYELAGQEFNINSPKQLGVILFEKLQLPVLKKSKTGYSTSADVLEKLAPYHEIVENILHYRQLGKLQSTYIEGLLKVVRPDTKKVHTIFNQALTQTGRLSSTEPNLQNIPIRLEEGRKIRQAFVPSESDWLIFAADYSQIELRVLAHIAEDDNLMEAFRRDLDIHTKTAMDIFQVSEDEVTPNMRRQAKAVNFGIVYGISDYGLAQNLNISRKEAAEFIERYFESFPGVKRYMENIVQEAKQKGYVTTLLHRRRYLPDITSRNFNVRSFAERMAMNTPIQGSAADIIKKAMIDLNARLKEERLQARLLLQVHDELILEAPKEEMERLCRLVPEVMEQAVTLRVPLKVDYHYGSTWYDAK
Assay: X-ray crystallography
Conditions: post-translocated binary complex, 20 mM MgCl2 in annealing buffer, strand 1 (primer) DNA, P/T annealed in 50 mM Tris-Cl pH 7.5, 150 mM NaCl, 1 mM EDTA, 10 mM BME + 20 mM MgCl2, polymerase + P/T + TTP 30 min at 37 C before crystallization, recombinant protein, residues 3-580, protein details: tagless, synthetic backbone, letters put together from the description

Sequence	binding result (1.91 A, strand 2 (template) entirely TNA (alpha-L-threofuranosyl, 3'-2' linked))	binding result (1.62 A, strand 2 (template) entirely FANA (2'-deoxy-2'-fluoro-arabino), U in place of T)
GCGATCACGTT / GACGTACGTGATCGCA [DNA/TNA primer-template, primer extended by one dT]	binds	
GCGATCACGTT / GACGUACGUGAUCGCA [DNA/FANA primer-template, primer extended by one dT]		binds

Protein sequences can lack the tags named with them.
